Measured values from article doi:10.1101/597153.

Biological target: T1, FLAG-SIRT1-WT (mouse) (UniProt Q923E4)
T1 sequence: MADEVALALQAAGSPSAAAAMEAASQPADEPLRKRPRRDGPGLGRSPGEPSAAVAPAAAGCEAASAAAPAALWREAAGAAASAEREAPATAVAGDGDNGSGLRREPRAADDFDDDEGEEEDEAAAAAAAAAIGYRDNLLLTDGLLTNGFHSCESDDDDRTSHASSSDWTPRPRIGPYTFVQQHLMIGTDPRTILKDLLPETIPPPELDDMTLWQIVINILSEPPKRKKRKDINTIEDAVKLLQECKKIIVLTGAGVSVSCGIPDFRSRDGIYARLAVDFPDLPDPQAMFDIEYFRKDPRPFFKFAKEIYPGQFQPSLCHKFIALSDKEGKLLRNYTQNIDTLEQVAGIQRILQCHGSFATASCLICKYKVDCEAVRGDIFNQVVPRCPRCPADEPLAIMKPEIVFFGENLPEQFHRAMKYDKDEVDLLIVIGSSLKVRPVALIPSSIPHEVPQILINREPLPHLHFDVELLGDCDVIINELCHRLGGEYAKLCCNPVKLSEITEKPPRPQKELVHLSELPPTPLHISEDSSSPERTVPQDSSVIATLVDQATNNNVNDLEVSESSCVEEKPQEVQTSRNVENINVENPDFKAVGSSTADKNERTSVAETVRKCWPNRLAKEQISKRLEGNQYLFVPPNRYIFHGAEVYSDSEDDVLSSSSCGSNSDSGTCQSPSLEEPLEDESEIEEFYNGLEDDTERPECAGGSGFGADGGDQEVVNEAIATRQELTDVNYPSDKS
Test: co-IP

In the case of “AKT (human (endogenous in HEK293T)) (enzyme)”, the binding is reported as “binds”.

No constants are given. Whether binding was seen depends on the method and setting. In cells and extracts the contact can be indirect. Binding calls can cover weak binding; strength is not graded here. Tags and fused reporters may be left off the sequences shown.
